Laboratory results published in doi:10.1101/2024.08.29.610327.
No constants are given. Whether binding was seen depends on the method and setting. In cells and extracts the contact can be indirect. A result given as binding can be weak or reduced; the word gives no strength. Tags and fused reporters may be left off the sequences shown. Values belong to the binder of their own block, whether it stands above or below them.

Chains of the proteins cited; added tags and fusions are not shown. Lines headed by an entry give the natural chain unless they say otherwise; changes in a name come on top.
UniProt F4KF65: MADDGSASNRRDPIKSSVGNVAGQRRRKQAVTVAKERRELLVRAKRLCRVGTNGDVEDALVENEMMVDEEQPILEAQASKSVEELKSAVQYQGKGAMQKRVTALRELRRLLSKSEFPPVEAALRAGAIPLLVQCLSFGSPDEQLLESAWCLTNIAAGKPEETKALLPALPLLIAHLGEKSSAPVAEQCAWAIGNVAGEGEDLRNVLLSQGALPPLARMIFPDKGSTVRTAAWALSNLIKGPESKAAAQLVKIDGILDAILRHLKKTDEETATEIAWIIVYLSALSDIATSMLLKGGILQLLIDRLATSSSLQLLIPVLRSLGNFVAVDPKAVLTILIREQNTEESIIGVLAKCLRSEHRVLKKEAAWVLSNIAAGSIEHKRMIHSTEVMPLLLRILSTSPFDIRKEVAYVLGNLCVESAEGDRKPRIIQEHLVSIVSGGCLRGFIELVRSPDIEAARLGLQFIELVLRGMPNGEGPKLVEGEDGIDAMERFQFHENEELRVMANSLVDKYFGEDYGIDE

Key:
[1] = molecular target: IMPα-9-GFP (pIMP-α9:IMPα-9-GFP) (Arabidopsis thaliana) (UniProt F4KF65); test: co-IP
[2] = molecular target: nLuc-IMPα-9 (35S:nLuc-IMPα-9) (Arabidopsis thaliana) (UniProt F4KF65); test: split reporter

- binding [1]: binds
B1: TPL-cLuc (35S:TPL-cLuc) in Arabidopsis (protein, UniProt Q94AI7 1-1131)
chain: MSSLSRELVFLILQFLDEEKFKETVHKLEQESGFFFNMKYFEDEVHNGNWDEVEKYLSGFTKVDDNRYSMKIFFEIRKQKYLEALDKHDRPKAVDILVKDLKVFSTFNEELFKEITQLLTLENFRENEQLSKYGDTKSARAIMLVELKKLIEANPLFRDKLQFPTLRNSRLRTLINQSLNWQHQLCKNPRPNPDIKTLFVDHSCGPPNGARAPSPVNNPLLGGIPKAGGFPPLGAHGPFQPTASPVPTPLAGWMSSPSSVPHPAVSAGAIALGGPSIPAALKHPRTPPTNASLDYPSADSEHVSKRTRPMGISDEVNLGVNMLPMSFSGQAHGHSPAFKAPDDLPKTVARTLSQGSSPMSMDFHPIKQTLLLVGTNVGDIGLWEVGSRERLVQKTFKVWDLSKCSMPLQAALVKEPVVSVNRVIWSPDGSLFGVAYSRHIVQLYSYHGGEDMRQHLEIDAHVGGVNDISFSTPNKQLCVITCGDDKTIKVWDAATGVKRHTFEGHEAPVYSVCPHYKENIQFIFSTALDGKIKAWLYDNMGSRVDYDAPGRWCTTMAYSADGTRLFSCGTSKDGESFIVEWNESEGAVKRTYQGFHKRSLGVVQFDTTKNRYLAAGDDFSIKFWDMDAVQLLTAIDGDGGLQASPRIRFNKEGSLLAVSGNENVIKIMANSDGLRLLHTFENISSESSKPAINSIAAAAAAAATSAGHADRSANVVSIQGMNGDSRNMVDVKPVITEESNDKSKIWKLTEVSEPSQCRSLRLPENLRVAKISRLIFTNSGNAILALASNAIHLLWKWQRNERNATGKATASLPPQQWQPASGILMTNDVAETNPEEAVPCFALSKNDSYVMSASGGKISLFNMMTFKTMATFMPPPPAATFLAFHPQDNNIIAIGMDDSTIQIYNVRVDEVKSKLKGHSKRITGLAFSNVLNVLVSSGADAQLCVWNTDGWEKQRSKVLPLPQGRPNSAPSDTRVQFHQDQAHFLVVHETQLAIYETTKLECMKQWAVRESLAPITHATFSCDSQLVYASFMDATVCVFSSANLRLRCRVNPSAYLPASLSNSNVHPLVIAAHPQEPNMFAVGLSDGGVHIFEPLESEGKWGVAPPAENGSASGAPTAPSVGASASDQPQR

- binding [2]: binds
B2: TPL-cLuc (35S:TPL-cLuc) in Nicotiana benthamiana (protein, UniProt Q94AI7 1-1131)
chain: B1 chain
